# Some results were stated once for a whole list of compounds, not compound by compound.
# Chains of the proteins cited; added tags and fusions are not shown.
# UniProt P25103, whole entry: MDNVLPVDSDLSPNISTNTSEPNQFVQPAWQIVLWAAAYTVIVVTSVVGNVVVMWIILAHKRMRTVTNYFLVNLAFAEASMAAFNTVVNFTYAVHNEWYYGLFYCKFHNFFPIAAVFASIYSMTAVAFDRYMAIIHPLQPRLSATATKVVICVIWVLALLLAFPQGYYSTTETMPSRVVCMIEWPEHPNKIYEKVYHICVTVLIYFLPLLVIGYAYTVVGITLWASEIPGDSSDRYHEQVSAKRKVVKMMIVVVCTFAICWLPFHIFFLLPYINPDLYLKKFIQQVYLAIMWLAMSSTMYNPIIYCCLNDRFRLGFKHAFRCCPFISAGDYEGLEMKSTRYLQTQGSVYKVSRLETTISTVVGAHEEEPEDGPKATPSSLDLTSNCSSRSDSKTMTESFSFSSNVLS
# Molecular target: human NK1-receptor (Homo sapiens, UniProt P25103)
# Experiment: Binding potency of the test substances to NK1-receptors in vitro ([3H]-Substance P displacement)
# Settings: human NK1-receptor in CHO cell membranes, average of at least three measurements
# Protocol: 1. Determination of the Binding Potency of the Test Substances to NK1-Receptors in Vitro
# The affinity of test compounds for NK1-receptors can be determined by measuring the ability of the test compound to displace a radiolabeled ligand from its specific binding site. The tests were performed at Solvay Pharmaceuticals, Weesp, The Netherlands.
# Separation of bound radioactivity from free radioactivity was done by filtration through glass fiber filters (Packard GF/B) with several washings with ice-cold buffer solution. Bound radioactivity was measured with a liquid scintillation counter (total binding).
# The inhibition constant (Ki) was calculated according to the Cheng-Prusoff equation, and listed as its negative logarithmic value (pKi). The pKi value describes the potency of a test compound to bind to a receptor.
row,SMILES,"pKi, binding potency to NK1-receptors"
1,CN(C)C(=O)C1(N2CCCCC2)CCN(CCC(CN(C)C(=O)c2cccc(C(F)(F)F)c2)c2ccc(Cl)c(Cl)c2)CC1 (stereo not drawn) [compound 83],at least 7.0
2,"CCCCN(C(=O)CC)C1CCN(CC[C@H](CN(C)C(=O)c2ccccc2)c2ccc(Cl)c(Cl)c2)CC1 [compound 108, N-[(2S)-4-{4-[butyl(propionyl)amino]piperidin-1-yl}-2-(3,4-dichlorophenyl)butyl]-N-methylbenzamide]",at least 7.0
3,"CCC(=O)N(C1CCCCC1)C1CCN(CC[C@H](CN(C)C(=O)c2ccccc2)c2ccc(Cl)c(Cl)c2)CC1 [compound 116, N-[(2S)-4-{4-[cyclohexyl(propionyl)amino]piperidin-1-yl}-2-(3,4-dichlorophenyl)butyl]-N-methyl-benzamide]",at least 7.0
